Data on 36 compounds can be found in PubChem BioAssay AID248 (DTP/NCI, 2004).

The list is a part of this screen's results and no random one: it is rich in T/C values a quarter to a half above the control, in often repeated tests (any T/C) and in doses without a T/C. Further doses and runs are listed elsewhere. T/C is the treated group as % of the vehicle group. Some entries give survivors of the animals treated and no T/C: the source files T/C as zero there, which appears to mark a toxic dose or a test without result, not a measured value. Some doses without a T/C left all or most animals alive at the check, yet need not have been tolerated: the source hardly ever lists a survival T/C far under the control, and the zero likely stands for such cases as well. Survivors were counted at the toxicity check, usually on the fifth day, unless a day is given; later deaths do not show. Schedule codes are those of the source, read here as Q, the interval in days (D) or hours (H), X, the number of doses. Some schedule codes hold Z or #, which are not explained here. Where survival is the endpoint, the PubChem record calls one and a half times the control and up active, and a quarter to a half above the control has no call in these data; cut-offs in other NCI protocols can differ. Some T/C values are followed by the survivors on the day toxicity was checked, most often the fifth; where none is given, no animal had died by that day.

The test relates to L1210 leukemia ip in BDF1 mice, survival T/C. Description: NCI In Vivo Anticancer Drug Screen. Data for tumor model L1210 Leukemia (intraperitoneal) in B6D2F1 (BDF1) mice. The conditions noted are these: T/C endpoint: mean survival time, higher T/C = longer survival.
[1] abbreviates: dose: 400.0 mg/kg/injection, schedule: Q01DX001 (ip), vehicle: carboxymethylcellulose (CMC).
[2] abbreviates: dose: 400.0 mg/kg/injection, schedule: Q01DX001 (ip), vehicle: saline.
The mark [3] stands for this setting: dose: 400.0 mg/kg/injection, schedule: Q04DX002 (ip), vehicle: saline with Tween-80.
The mark [4] stands for this setting: dose: 200.0 mg/kg/injection, schedule: Q04DX003 (ip), vehicle: Klucel (hydroxypropylcellulose) (HPC).
Where [5] appears, read: dose: 400.0 mg/kg/injection, schedule: Q04DX003 (ip), vehicle: Klucel (hydroxypropylcellulose) (HPC).
Setting [6] is: dose: 300.0 mg/kg/injection, schedule: Q01DX001 (ip), vehicle: saline.
Where [7] appears, read: dose: 100.0 mg/kg/injection, schedule: Q04DX003 (ip), vehicle: Klucel (hydroxypropylcellulose) (HPC).
[8] abbreviates: dose: 400.0 mg/kg/injection, schedule: Q01DX001 (ip), vehicle: other.
Setting [9] is: dose: 400.0 mg/kg/injection, schedule: Q01DX009 (ip), vehicle: Klucel (hydroxypropylcellulose) (HPC).
The mark [10] stands for this setting: dose: 100.0 mg/kg/injection, schedule: Q04DX003 (ip), vehicle: saline.
The mark [11] stands for this setting: dose: 200.0 mg/kg/injection, schedule: Q04DX003 (ip), vehicle: saline.
Where [12] appears, read: dose: 400.0 mg/kg/injection, schedule: Q04DX003 (ip), vehicle: saline.
Setting [13] is: dose: 400.0 mg/kg/injection, schedule: Q04DX003 (ip), vehicle: other.

Regarding `CCN(CC)Cc1c(C)cc2oc(=O)c3c(c2c1O)CCCC3`, under setting [1], the survivor count is listed as 1 of 4. `N=c1ccccn1CC(Cl)COc1ccccc1` (stereo not drawn): the survivor count reads like this: (dose: 200.0 mg/kg/injection, schedule: Q01DX001 (ip), vehicle: saline) 1 of 4; under setting [2], 0 of 4. Turning to `COc1ccc(CCNC(=S)NN)cc1OC`, the survivor count was 3 of 3 (dose: 100.0 mg/kg/injection, schedule: Q04DX002 (ip), vehicle: saline with Tween-80) and 0 of 3 under setting [3]. As for `CCC(C#N)C1C=CCCC1` (stereo not drawn), the survivor count (dose: 300.0 mg/kg/injection, schedule: Q01DX001 (ip), vehicle: other) was 3 of 6. As for `Cc1cc2oc(=O)cc(N3CCOCC3)c2c(=O)o1`, the T/C (dose: 50.0 mg/kg/injection, schedule: Q01DX009 (ip), vehicle: saline with Tween-80) is 125 % of control [5 of 6 alive]. Regarding `ICc1nc2ccccc2[nH]1`, the survivor count reads like this: (dose: 75.0 mg/kg/injection, schedule: Q01DX001 (ip), vehicle: steroid suspending solution) 4 of 6; (dose: 150.0 mg/kg/injection, schedule: Q01DX001 (ip), vehicle: steroid suspending solution) 0 of 6; (dose: 300.0 mg/kg/injection, schedule: Q01DX001 (ip), vehicle: steroid suspending solution) 0 of 6. On to `C=CCNC(=S)Nc1ccccc1C=O`, for which the survivor count (dose: 200.0 mg/kg/injection, schedule: Q04DX002 (ip), vehicle: Klucel (hydroxypropylcellulose) (HPC)) is recorded as 0 of 3 and the survivor count (dose: 400.0 mg/kg/injection, schedule: Q04DX002 (ip), vehicle: Klucel (hydroxypropylcellulose) (HPC)) is on record as 0 of 3.

As to `C[As](=O)(O)c1ccc(N)cc1`, the survivor count under setting [4] is listed as 3 of 6 and the survivor count under setting [5] was 0 of 6. Turning to `CCN(CC)CCNC(=O)c1ccc2nc(N)sc2c1`, the survivor count under setting [6] is listed as 0 of 6. For `N#CC(C#N)=CN1CCOCC1`, under setting [3], the survivor count is reported as 0 of 3. For `Cc1c[n+]2ccc3ccccc3c2c2ccccc12`, the survivor count reads like this: (dose: 10.0 mg/kg/injection, schedule: Q04DX003 (ip), vehicle: acetone) 3 of 6; (dose: 11.0 mg/kg/injection, schedule: Q01DX009 (ip), vehicle: saline) 1 of 6; (dose: 16.5 mg/kg/injection, schedule: Q01DX009 (ip), vehicle: saline) 0 of 6; (dose: 20.0 mg/kg/injection, schedule: Q01DX001 (ip), vehicle: acetone) 0 of 6. For `CC(C)/C=C(\C#N)C(=O)O`, the survivor count runs as follows: (dose: 12.5 mg/kg/injection, schedule: Q01DX009 (ip), vehicle: Klucel (hydroxypropylcellulose) (HPC)) 3 of 6; under setting [7], 0 of 6; under setting [4], 0 of 6; under setting [5], 0 of 6. In the case of `CN=C(NO)c1ccccc1C`, the survivor count under setting [1] is reported as 0 of 4. Turning to `N#CC(C#N)=Cc1ccc(Cl)c(Cl)c1`, the survivor count under setting [8] is 2 of 4. Take `O=C(NCCCCC(NC(=O)c1ccccc1)C(=O)NCCCCCCCCCCNC(=O)C(CCCCNC(=O)c1ccccc1)NC(=O)c1ccccc1)c1ccccc1` (stereo not drawn): the survivor count is given as 5 of 6 (dose: 100.0 mg/kg/injection, schedule: Q01DX Z (ip), vehicle: saline) and 6 of 6 (dose: 300.0 mg/kg/injection, schedule: Q01DX Z (ip), vehicle: saline). `COc1ccc(NC(=O)Oc2ccc(Cl)cc2Cl)c(OC)c1`: under setting [9], the survivor count was 3 of 6.

Regarding `CN(C)C(C#N)c1c[nH]c2ccccc12` (stereo not drawn), the survivor count is, setting by setting: (dose: 50.0 mg/kg/injection, schedule: Q01DX009 (ip), vehicle: Klucel (hydroxypropylcellulose) (HPC)) 0 of 6; under setting [7], 1 of 6; under setting [4], 0 of 6; under setting [5], 1 of 6. With `COC1OC(OC)[CH]([Hg][Cl])C1OC` (stereo not drawn), the survivor count (dose: 25.0 mg/kg/injection, schedule: Q04DX003 (ip), vehicle: saline) is given as 3 of 6.

With `Cn1c(=O)c2c(ncn2CN2CCOCC2)n(C)c1=O`, the survivor count under setting [6] is recorded as 1 of 6. As to `O=C1OC2(CCNCC2)C(=O)N1c1ccc(F)cc1`, the survivor count (dose: 50.0 mg/kg/injection, schedule: Q01DX001 (ip), vehicle: carboxymethylcellulose (CMC)) is on record as 0 of 6. Turning to `CCCCCCCCCCCCCCCCCC[N+](CCCC)(CCCC)CCCCCCCCCCCCCCCCCC` (tested in a mixture with another compound), under setting [8], the survivor count is 6 of 6.

`CC1(C)C2CCC1(CS(=O)(=O)Cl)C(=O)C2` (stereo not drawn): the survivor count under setting [1] is recorded as 2 of 4. Regarding `CCO/C(=C\[P+](c1ccccc1)(c1ccccc1)c1ccccc1)c1ccccc1`, the survivor count (dose: 80.0 mg/kg/injection, schedule: Q01DX001 (ip), vehicle: saline) was 2 of 6. For `NC(N)=N/N=C(\C=C\C=C(c1ccc(Cl)cc1)c1ccc(Cl)cc1)c1ccc(Cl)cc1`, the survivor count under setting [10] is listed as 0 of 6, the survivor count under setting [11] is listed as 0 of 6 and the survivor count under setting [12] is 0 of 6. On to `N#[N+]c1ccc2[nH]c3ccccc3c(=O)c2c1`, for which the survivor count (dose: 75.0 mg/kg/injection, schedule: Q01DX001 (ip), vehicle: saline) was 1 of 6; the survivor count (dose: 150.0 mg/kg/injection, schedule: Q01DX001 (ip), vehicle: saline) was 1 of 6; the survivor count under setting [6] is 1 of 6. In the case of `CNCCOCc1ccccc1`, under setting [2], the survivor count is on record as 0 of 4. Turning to `CCOC(=O)NCC(CCN1CCCCC1)(c1cccc2ccccc12)C(C)C` (stereo not drawn), the survivor count under setting [5] was 1 of 6. For `CN(C)CCCOc1c2ccccc2cc2ccccc12`, the survivor count (dose: 32.0 mg/kg/injection, schedule: Q01DX015 (ip), vehicle: carboxymethylcellulose (CMC)) is 3 of 6. For `CCC(=O)N/N=C/C=N/NC(=O)c1ccncc1`, the survivor count under setting [9] is 6 of 6. Regarding `CCC(=O)c1cc(O)ccc1O`, under setting [13], the survivor count is 5 of 6.

For the compound `C1=CC2CC1CC2CNCCN1CC1` (stereo not drawn), the survivor count is 0 of 6 (dose: 40.0 mg/kg/injection, schedule: Q04DX003 (ip), vehicle: saline); 0 of 6 under setting [10]; 0 of 6 under setting [11]; 0 of 6 under setting [12].

As to `C#CCSC(=S)OCC`, under setting [13], the survivor count is given as 5 of 6. Turning to `CC(C)C1NC(=O)C(N)C(C)OC(=O)C(C(C)C)N(C)C(=O)CN(C)C(=O)C2CCCN2C1=O` (stereo not drawn) (tested in a mixture with another compound), the T/C (dose: 1.6 mg/kg/injection, schedule: Q01DX001 (ip), vehicle: saline + alcohol) is 133 % of control; the T/C (dose: 50.0 micrograms/kg/injection, schedule: Q01DX009 (ip), vehicle: saline + alcohol) is 127 % of control; the T/C (dose: 100.0 micrograms/kg/injection, schedule: Q01DX009 (ip), vehicle: saline + alcohol) was 127 % of control [7 of 8 alive]; the T/C (dose: 200.0 micrograms/kg/injection, schedule: Q01DX009 (ip), vehicle: saline + alcohol) was 145 % of control; the T/C (dose: 400.0 micrograms/kg/injection, schedule: Q01DX009 (ip), vehicle: saline + alcohol) was 129 % of control; the T/C (dose: 600.0 micrograms/kg/injection, schedule: Q04DX003 (ip), vehicle: saline + alcohol) is 126 % of control. `C/C(=N/N(C)C)c1ccccn1`: the survivor count (dose: 400.0 mg/kg/injection, schedule: Q01DX009 (ip), vehicle: saline with Tween-80) is recorded as 3 of 6. In the case of `Cc1ccc(CCNc2ncnc(Cl)c2N)cc1`, the survivor count is, setting by setting: (dose: 200.0 mg/kg/injection, schedule: Q01DX001 (ip), vehicle: other) 0 of 4; under setting [8], 0 of 4. With `O=[As](O)(O)CCc1ccccc1`, the survivor count runs as follows: (dose: 50.0 mg/kg/injection, schedule: Q04DX003 (ip), vehicle: Klucel (hydroxypropylcellulose) (HPC)) 0 of 3; under setting [7], 1 of 6; under setting [4], 0 of 6; under setting [5], 0 of 6.
